Source: US9447075B2, “Pyridazine derivatives as EAAT2 activators” (The Brigham and Women's Hospital, Inc., priority 2011, dated 2016)
The name of at least one read-out is uncertain.

Assay: In vivo pharmacokinetic evaluation in male C57Bl/6 mice (LCMS/MS)
Set-up: species or system mouse
Details: single i.p. 3 mg/kg
Method: Compound 212320 is compliant with Lipinski rules and lacks functionality that would predict overt toxicity or reactivity. This compound has a low molecular weight (293.38), cLogP value (3.28) and polar surface area (PSA) value (37.08 Å2) in the range typical of compounds that can penetrate the blood brain barrier. We conducted in vivo pharmacokinetic evaluation of LDN 212320 in male C57Bl/6 mice. After a single intraperitoneal (i.p.) administration of Compound 212320 (3 mg/kg), the plasma and brain concentrations were determined over an 8 hr period by LCMS/MS (FIG. 8A). […] The plasma and brain half-lives were estimated to be 2.63 and 2.64 hr, respectively. The average brain-to-plasma ratio was approximately 2 at all time points tested.

Compound: Cc1ccccc1CSc1ccc(-c2ccccn2)nn1 [Compound 7-4]
- Time of Cmax post-injection: 15 min
